# Laboratory results taken from PubChem BioAssay AID2685 (National Center for Advancing Translational Sciences (NCATS), 2010).
# Hit rate of the full screen: of about 320,000 compounds, about 2,100 (0.66%) were called active. The inconclusive results got no clear call from the source; some entries with a clear call stand among them for comparison. Calls follow the shape of the dose curve; as a rule, active = well fitted inhibition curve with a large enough effect in the signal ratio, with a control signal flat (not every such curve was filed as active); inconclusive = small, poorly fitted or top-dose-only effect, or effect the other way, or a change in a side signal; inactive = flat fitted curve, though single readings scatter; the % refers to the signal ratio. Potencies of inconclusive entries are doubtful fits and often do not repeat.
# Experiment: qHTS Assay for Lipid Storage Modulators in Drosophila S3 Cells
# Details: BODIPY lipid droplet fluorescence, 18-24 h, cells fed with added oleic acid; lipid storage change, negative = inhibition: at 46.1 µM (top of the series) unless noted
# Summary of the method: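 Laser-scanning cytometry quantifies lipid droplet accumulation (500–530 nm total intensity; droplet/cell object ratio) in oleic acid-fed (400 uM added) Drosophila S3 cells treated with a concentration series. 20 uM Triacsin C defined 100% inhibition.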
# % is scaled to controls: 0 for no effect and ±100 for the full control effect; potency is read from the fitted curve at half-maximal effect.
SMILES,"lipid storage change, negative = inhibition",Potency
Cn1cccc1/C=C1/C(=O)NC(=O)N(Cc2ccccc2)C1=O,inconclusive: -39.4%,–
COc1ccc(CN2CCN(Cc3ccccc3)CC2)c(OC)c1,inconclusive: 45.7%,–
CCOc1ccc(-c2cc(C)[n+](CCN3CCOCC3)c(-c3ccc(OCC)cc3)c2)cc1,inconclusive: -22.9%,–
CC(Cc1ccccc1)NC(N)=O (stereo not given),inconclusive: -0.828%,–
CN(C)C(=O)Oc1cc(=O)n2c3c(cccc13)CCC2,–,"inconclusive: 1840 nM [activator, full curve]"
O=C(c1ccc(Cl)cc1)C1CCCN(Cc2ccc3ncccc3c2)C1 (stereo not given),–,"inconclusive: 29100 nM [falling, single point]"
O=Cc1c(C(=O)O)n(Cc2ccccc2F)c2ccccc12,inconclusive: 7.79%,–
Cc1ccc(/C=C(/C#N)C(=O)NC(=O)Oc2ccccc2)cc1,–,"inconclusive: 23100 nM [falling, single point]"
O=C1CC(=O)N(c2ccccc2F)C(=O)N1,inconclusive: 455%,–
Cc1ccccc1C(O)(Cc1ccccc1)C1CN2CCC1CC2 (stereo not given),inconclusive: -1.69%,–
CC(Cl)(Cl)/C(=N/P(=S)(N1CCOCC1)N1CCOCC1)N1CCOCC1,–,"inconclusive: 5.8 nM [cytotoxic, full curve, poor fit]"
Cc1ccc(N(C)C(=O)CCS(=O)(=O)c2ccc3c(c2)oc(=O)n3C)cc1,–,"inconclusive: 29100 nM [falling, single point]"
CC(C)c1ccc(N2C(=O)NC(=O)/C(=C\C=C\c3ccco3)C2=O)cc1,–,"inconclusive: 20600 nM [cytotoxic, single point]"
COC(=O)C1=C(c2cc3ccccc3s2)C[C@@H]2CC[C@H]1N2C,–,"inconclusive: 184 nM [activator, full curve, poor fit]"
Cc1ccc2c(CN3CC=C(c4ccccc4)CC3)cc(=O)oc2c1C,inactive: 10%,–
CCCCCCN1CCN(c2ccccc2Cl)CC1,inconclusive: 1.29%,–
COc1ccc(-n2nc(C(=O)NCC(=O)N3CCC4(CC3)OCCO4)c3ccccc3c2=O)cc1OC,–,"inconclusive: 130 nM [falling, full curve, poor fit]"
C/C(N)=C(/C#N)C(=O)CSc1nc2cc(Cl)ccc2c(=O)n1-c1ccc(C)cc1,–,"inconclusive: 29100 nM [falling, single point]"
COc1cc(O)cc2c1C(=O)O[C@@H](C)CCCC(=O)CCCCC2,inconclusive: -34%,–
COc1ccc(N2C(=O)NC(=O)/C(=C\c3cn(C)c4ccccc34)C2=O)cc1,inconclusive: -32.8%,–
CCCNC(=O)N1[C@H]2CC[C@@H]1C(C(=O)OC)=C(c1cccc(Cl)c1)C2,inconclusive: -30.5%,–
O=c1[nH]c2ccccc2n1CCCN1CCC(n2c(=O)[nH]c3cc(Cl)ccc32)CC1,inconclusive: 0.716%,–
O=c1[nH]c(=O)n(-c2cccc(Cl)c2)c(O)c1C=NCCCN1CCOCC1,inconclusive: 64.9%,–
O=C1N(c2ccccc2)C(c2cccnc2)N2CCCN12 (stereo not given),inactive: -3.46%,–
CC(C)[C@H]1C(=O)O[C@H](C(C)C)C(=O)N(C)[C@@H](C(C)C)C(=O)O[C@H](C(C)C)C(=O)N(C)[C@@H](C(C)C)C(=O)O[C@H](C(C)C)C(=O)N1C,inconclusive: -1.19%,–

SMILES,"lipid storage change, negative = inhibition",Potency
CC(C)n1c(=O)c(C=Nc2cccc([N+](=O)[O-])c2)c(O)n(CCc2ccccc2)c1=O,inconclusive: 8.98%,–
CC(=O)Nc1ccc(S(=O)(=O)NC(CC(=O)N2CCC3(CC2)OCCO3)C(C)C)cc1 (stereo not given),inconclusive: -7.72%,–
CCOC(C(=O)OCCC[N+](C)(CC)CC)(c1ccccc1)c1ccccc1,–,"inconclusive: 366 nM [falling, partial curve]"
O=C(O)CCn1cc(C=C2C(=O)NC(=O)NC2=O)c(-c2ccc(Br)cc2)n1,inconclusive: 26.7%,–
CCC(C)NC(=O)CN1C(=O)CN=C(c2ccccc2)c2ccccc21 (stereo not given),inconclusive: -0.386%,–
CN(C)P(=O)(C(Cl)=C(N1CCCCC1)N1CCCCC1)N(C)C,–,"inconclusive: 651 nM [activator, partial curve, poor fit]"
C=CCn1c(O)c(C(CC)=NC2CC2)c(=O)[nH]c1=O,inconclusive: -20.5%,–
CCCCOCCCn1c(N)c(C(=O)OCCOC)c2nc3ccccc3nc21,inconclusive: -41.7%,–
CCOc1ccc(N=Cc2c(O)n(-c3ccc(C)c(C)c3)c(=O)[nH]c2=O)cc1,inconclusive: -2.9%,–
COc1cccc(C(=O)C2CCCN(Cc3cccc4c3OCO4)C2)c1 (stereo not given),–,"inconclusive: 29100 nM [activator, single point]"
C#C[C@]1(O)CC[C@H]2[C@@H]3CCC4=CC(=O)CC[C@]4(C)[C@H]3CC[C@@]21C,inconclusive: -18.2%,–
CCCCn1c(O)c(C(C)=NCCCn2ccnc2)c(=O)[nH]c1=O,–,"inconclusive: 920 nM [activator, partial curve]"
c1ccc2sc(N3CCNCC3)nc2c1,inconclusive: -27.5%,–
Cc1nc2ccccc2n1C1CCN(Cc2nnnn2CCc2ccccc2)CC1,inconclusive: 7.98%,–
Cn1c(=O)oc2cc(S(=O)(=O)CCC(=O)N3CCN(c4ccccc4F)CC3)ccc21,–,"inconclusive: 6510 nM [falling, single point]"
CC12CCCCC1=NC(c1ccc(Br)cc1)N2O (stereo not given),inconclusive: -8.39%,–
COc1ccc(Cn2c(O)c(C=NCCN3CCOCC3)c(=O)[nH]c2=O)cc1,inconclusive: 13.5%,–
C=C1C(=O)O[C@@H]2C[C@@H](C)[C@@H]3C4OC4C(=O)[C@@]3(C)[C@@H](O)[C@H]12 (stereo not given in full),–,"inconclusive: 23100 nM [cytotoxic, partial curve]"
COC(=O)C1=C(c2ccccc2OCc2ccccc2)C[C@@H]2CC[C@H]1N2C(=O)NCc1cccc(C(F)(F)F)c1,inconclusive: -4.46%,–
CC(NC1=NCCS1)c1ccccc1 (stereo not given),inconclusive: 3.88%,–
Oc1ccc(C[C@H]2NCCc3cc(O)c(O)cc32)cc1O,inconclusive: 60.8%,–
O=C1C(Cl)=CC(=Nc2ccc(O)cc2)C=C1Cl,inconclusive: 7.16%,–
COC(=O)C(O)(c1ccc(NC(=S)NC(=O)c2ccc(Cl)cc2Cl)c(C)c1)C(F)(F)F (stereo not given),inconclusive: -87.1%,–
NS(=O)(=O)OC(CCc1ccccc1)C(Cl)(Cl)Cl (stereo not given),–,"inconclusive: 4.6 nM [falling, full curve, poor fit]"
COc1ccc(N2C(=O)/C(=C/c3ccc(C)o3)C(=O)NC2=S)c(OC)c1,–,"inconclusive: 651 nM [activator, full curve, poor fit]"

SMILES,"lipid storage change, negative = inhibition",Potency
O=C(Cn1ncc2ccsc2c1=O)N1CCC2(CC1)OCCO2,inconclusive: -19.2%,–
CCOc1ccc(/C=C2/C(=O)NC(=O)N(CCc3ccc(F)cc3)C2=O)cc1,inconclusive: -35.2%,–
CC1SC2(CN3CCC2CC3)NC1=O (stereo not given),inconclusive: -4.46%,–
COc1ccc(C=O)cc1OC(=O)N1CCOCC1,–,"inconclusive: 29100 nM [falling, single point]"
OC(CCNCCc1c[nH]c2ccccc12)C(F)(F)F (stereo not given),–,"inconclusive: 2310 nM [falling, partial curve]"
O=Cc1cn(Cc2ccc([N+](=O)[O-])cc2)c2ccccc12,inconclusive: -11%,–
Nc1ccc(C2(c3ccc(N)cc3)c3ccccc3-c3ccccc32)cc1,inconclusive: 13.2%,–
CC(Cc1ccccc1)[n+]1cc(/N=C(\[O-])Nc2ccccc2)on1 (stereo not given),–,"inconclusive: 116 nM [rising, full curve, poor fit]"
CC(C)CNC(=O)c1c(N)n(Cc2ccc3c(c2)OCO3)c2nc3ccccc3nc12,inconclusive: -7.65%,–
Cc1nn(CCC#N)c2c1P(=S)(N1CCCC1)OC(c1ccc(F)cc1)=N2 (stereo not given),inconclusive: -1.62%,–
O=C1NC(=O)N(c2ccc(F)cc2)C(=O)/C1=C/c1ccsc1,inconclusive: -23.2%,–
CN(C)c1cc[n+](CC(O)C[n+]2ccc(N(C)C)cc2)cc1,–,"inconclusive: 20600 nM [activator, partial curve, poor fit]"
O=C(CCn1c(=O)oc2ccccc21)n1c(=O)oc2ccccc21,–,"inconclusive: 146 nM [activator, full curve, poor fit]"
CN1CCN(c2nc([N+](=O)[O-])nn2C)CC1,inconclusive: 0.504%,–
NP(=O)(OCCCCc1ccccc1)Oc1ccccc1Cl (stereo not given),inconclusive: 128%,–
CCOC(=O)C1(CCc2ccccc2)CCN(Cc2csc(C(C)=O)c2)CC1,inactive: -8.12%,–
COC(C)(C)CCCC(C)C/C=C/C(C)=C/C(=O)OC(C)C (stereo not given),–,"inconclusive: 146 nM [activator, single point]"
COc1ccc(Br)cc1CN1CCN(CCO)CC1,–,"inconclusive: 5800 nM [falling, single point]"
CCn1ccnc1CN1CCCC(C(=O)c2ccc(OC)cc2OC)C1 (stereo not given),–,"inconclusive: 92 nM [falling, full curve, poor fit]"
Cc1nn(Cc2ccccc2)c(C)c1C(=O)OCC(=O)NCc1ccco1,inconclusive: 4.69%,–
Cn1ccnc1P(=S)(c1nccn1C)N1CCOCC1,inconclusive: 24.4%,–
COc1ccccc1-n1c(/C=C/c2ccc(O)cc2)nc2ccccc2c1=O,inconclusive: 121%,–
CCC(C)n1c(O)c(C=NCCc2ccccc2)c(=O)[nH]c1=S (stereo not given),inconclusive: 16.1%,–
CC(=O)NC1CC2CCC(C1)N2 (stereo not given),–,"inconclusive: 3660 nM [falling, full curve, poor fit]"
O=C(COC(=O)Cc1ccccc1)Nc1cccnc1Cl,inconclusive: 46.1%,–

# Quoted at random: 2 records from the list.
SMILES,"lipid storage change, negative = inhibition",Potency
Cc1ccc(N(C)C(=O)CCS(=O)(=O)c2ccc3c(c2)oc(=O)n3C)cc1,–,"inconclusive: 29100 nM [falling, single point]"
Cc1ccccc1C(O)(Cc1ccccc1)C1CN2CCC1CC2 (stereo not given),inconclusive: -1.69%,–

# Single values from the entries so far:
# Potency with `COC(C)(C)CCCC(C)C/C=C/C(C)=C/C(=O)OC(C)C` (stereo not given) reads inconclusive: 146 nM [activator, single point]
# Potency with `COc1ccc(C=O)cc1OC(=O)N1CCOCC1` reads inconclusive: 29100 nM [falling, single point]
